The values below come from publication PMC10762094.

Chains of the proteins cited; added tags and fusions are not shown. Lines headed by an entry give the natural chain unless they say otherwise; changes in a name come on top.
UniProt Q4X158: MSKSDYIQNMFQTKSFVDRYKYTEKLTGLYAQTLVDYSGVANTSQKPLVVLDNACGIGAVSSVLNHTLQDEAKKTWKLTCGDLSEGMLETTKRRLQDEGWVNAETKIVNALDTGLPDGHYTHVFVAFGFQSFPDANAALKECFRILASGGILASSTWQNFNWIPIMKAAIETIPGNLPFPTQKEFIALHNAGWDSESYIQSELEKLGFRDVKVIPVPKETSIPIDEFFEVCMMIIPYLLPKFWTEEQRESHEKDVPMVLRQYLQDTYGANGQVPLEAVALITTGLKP
UniProt Q4WN17: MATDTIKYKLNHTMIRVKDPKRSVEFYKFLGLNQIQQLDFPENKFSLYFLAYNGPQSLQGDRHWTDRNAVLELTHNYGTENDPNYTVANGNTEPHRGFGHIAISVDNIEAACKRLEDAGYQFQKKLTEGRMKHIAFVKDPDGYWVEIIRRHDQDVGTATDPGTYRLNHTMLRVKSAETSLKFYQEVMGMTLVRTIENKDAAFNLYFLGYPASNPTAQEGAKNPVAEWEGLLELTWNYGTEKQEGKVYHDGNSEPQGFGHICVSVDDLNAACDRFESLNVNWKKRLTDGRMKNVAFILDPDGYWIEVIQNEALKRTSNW
UniProt Q4X0F2: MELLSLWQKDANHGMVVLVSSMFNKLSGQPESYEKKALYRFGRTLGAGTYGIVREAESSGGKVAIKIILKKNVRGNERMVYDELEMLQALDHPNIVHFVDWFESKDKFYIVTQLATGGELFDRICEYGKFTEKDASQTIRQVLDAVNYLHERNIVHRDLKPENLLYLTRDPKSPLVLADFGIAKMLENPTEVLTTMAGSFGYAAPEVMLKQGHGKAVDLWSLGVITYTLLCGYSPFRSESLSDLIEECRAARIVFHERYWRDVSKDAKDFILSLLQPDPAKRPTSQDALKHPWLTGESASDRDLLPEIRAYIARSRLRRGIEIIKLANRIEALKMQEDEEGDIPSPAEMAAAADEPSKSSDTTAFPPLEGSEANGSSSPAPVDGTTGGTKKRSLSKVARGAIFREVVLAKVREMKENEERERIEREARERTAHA
UniProt Q4WM81: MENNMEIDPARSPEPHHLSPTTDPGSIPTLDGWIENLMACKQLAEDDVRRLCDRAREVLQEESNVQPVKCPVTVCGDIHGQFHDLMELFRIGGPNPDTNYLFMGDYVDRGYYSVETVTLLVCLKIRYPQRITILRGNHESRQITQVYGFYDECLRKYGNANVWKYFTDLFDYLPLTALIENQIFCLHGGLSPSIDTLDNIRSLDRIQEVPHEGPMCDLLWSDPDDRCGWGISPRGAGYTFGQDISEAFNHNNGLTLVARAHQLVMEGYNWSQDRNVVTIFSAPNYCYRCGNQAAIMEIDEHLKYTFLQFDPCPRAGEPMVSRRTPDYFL
UniProt Q4WXF4: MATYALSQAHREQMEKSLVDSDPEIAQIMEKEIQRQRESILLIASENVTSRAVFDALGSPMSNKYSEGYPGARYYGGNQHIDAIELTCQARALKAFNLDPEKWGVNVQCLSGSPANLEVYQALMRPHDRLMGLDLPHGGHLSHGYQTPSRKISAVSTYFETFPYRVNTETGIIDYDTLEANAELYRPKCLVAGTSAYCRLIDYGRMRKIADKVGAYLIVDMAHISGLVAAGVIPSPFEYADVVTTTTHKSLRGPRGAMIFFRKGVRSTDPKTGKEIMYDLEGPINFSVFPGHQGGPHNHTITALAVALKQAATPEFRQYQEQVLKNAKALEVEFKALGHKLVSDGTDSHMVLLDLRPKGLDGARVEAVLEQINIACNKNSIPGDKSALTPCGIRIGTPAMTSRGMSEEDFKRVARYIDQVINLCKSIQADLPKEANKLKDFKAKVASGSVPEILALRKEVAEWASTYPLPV
UniProt Q4WI09: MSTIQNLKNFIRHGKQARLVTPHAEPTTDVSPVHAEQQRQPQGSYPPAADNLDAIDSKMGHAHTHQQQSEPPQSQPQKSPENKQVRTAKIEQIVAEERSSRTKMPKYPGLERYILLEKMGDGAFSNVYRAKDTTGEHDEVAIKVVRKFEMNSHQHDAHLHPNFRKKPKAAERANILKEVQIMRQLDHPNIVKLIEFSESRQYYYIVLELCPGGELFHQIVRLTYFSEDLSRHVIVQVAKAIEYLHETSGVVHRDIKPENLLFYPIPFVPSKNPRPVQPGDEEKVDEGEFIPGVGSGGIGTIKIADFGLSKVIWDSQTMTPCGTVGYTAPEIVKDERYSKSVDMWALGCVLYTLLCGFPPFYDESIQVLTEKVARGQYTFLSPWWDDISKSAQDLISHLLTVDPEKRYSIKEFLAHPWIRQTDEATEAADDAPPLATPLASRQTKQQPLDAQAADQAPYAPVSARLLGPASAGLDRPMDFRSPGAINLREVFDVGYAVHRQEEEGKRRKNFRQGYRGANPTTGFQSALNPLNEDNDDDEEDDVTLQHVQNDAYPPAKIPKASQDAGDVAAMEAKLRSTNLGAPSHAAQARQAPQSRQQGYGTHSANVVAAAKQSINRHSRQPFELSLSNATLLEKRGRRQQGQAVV
UniProt Q4WY97: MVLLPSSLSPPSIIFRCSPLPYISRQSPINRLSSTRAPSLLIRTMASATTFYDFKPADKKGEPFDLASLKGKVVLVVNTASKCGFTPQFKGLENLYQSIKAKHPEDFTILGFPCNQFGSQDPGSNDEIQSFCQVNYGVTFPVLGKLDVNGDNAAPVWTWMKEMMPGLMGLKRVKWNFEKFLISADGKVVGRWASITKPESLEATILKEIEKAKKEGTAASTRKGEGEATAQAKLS
UniProt Q4WW00: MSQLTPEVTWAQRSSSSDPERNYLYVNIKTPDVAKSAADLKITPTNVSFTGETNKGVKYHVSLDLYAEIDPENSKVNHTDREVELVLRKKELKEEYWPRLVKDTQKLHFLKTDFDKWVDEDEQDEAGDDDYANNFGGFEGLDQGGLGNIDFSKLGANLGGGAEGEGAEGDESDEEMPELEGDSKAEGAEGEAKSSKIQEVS

One assay deals with T1, GliT:GFP (A. fumigatus) (UniProt E9RAH5).
T1 sequence: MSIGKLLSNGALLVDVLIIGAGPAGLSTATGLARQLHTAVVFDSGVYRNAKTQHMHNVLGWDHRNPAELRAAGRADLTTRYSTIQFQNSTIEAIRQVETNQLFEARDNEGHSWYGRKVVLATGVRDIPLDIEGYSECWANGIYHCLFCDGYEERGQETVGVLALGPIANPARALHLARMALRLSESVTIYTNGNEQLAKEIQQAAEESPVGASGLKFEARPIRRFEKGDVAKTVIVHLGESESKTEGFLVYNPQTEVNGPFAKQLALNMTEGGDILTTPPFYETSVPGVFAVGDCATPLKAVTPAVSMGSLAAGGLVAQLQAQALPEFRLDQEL
Briefly: affinity purification with mass spectrometry.

The target in a further assay is GtmA:GFP (A. fumigatus) (UniProt Q4X158). Briefly: affinity purification with mass spectrometry.

These are yes or no findings as the source states them, for the method shown. In cells and extracts the contact can be indirect. A yes stands for co-enrichment or nearness to the bait. Other partners may have been found. For some of these results: Sequences can lack the tags named with a protein.

With “Lactoylglutathione lyase (Afu6g07940) (from UniProt Q4WN17)”, the binding entry with GliT:GFP (A. fumigatus) is “binds”. Take “Calcium/calmodulin-dependent protein kinase (Afu2g13680) (from UniProt Q4X0F2)”: the binding result with GtmA:GFP (A. fumigatus) is recorded as “binds”. Still for that read-out and setting: to “PphB, protein serine/threonine phosphatase activity (from UniProt Q4WM81)” belongs “binds”. In the case of “Serine hydroxymethyltransferase (Afu3g09320) (from UniProt Q4WXF4)”, the binding entry with GliT:GFP (A. fumigatus) and with GtmA:GFP (A. fumigatus) was “binds” in each case. As to “Calcium/calmodulin-dependent protein kinase (Afu2g03490) (from UniProt Q4WI09)”, the binding result with GliT:GFP (A. fumigatus) and in the assay with GtmA:GFP (A. fumigatus) was “binds” throughout.

On to “Glutathione peroxidase; peroxiredoxin (Afu3g12270) (from UniProt Q4WY97)”, for which the binding entry in the assay with GliT:GFP (A. fumigatus) was “binds”. Same read-out and setting: with “Wos2, Hsp90 binding co-chaperone (from UniProt Q4WW00)” the entry was “binds”.

B1: GliN, methyltransferase, encoded in the putative gliotoxin biosynthetic gene cluster (protein, UniProt Q4WMJ1 1-282)
chain: MTVLPDSENGYLLNYEDQEKRRMNMQHDLIKTYMGKLILAPLPFDQPNLRVLDSGTFNGLWLEDASTLLQSPTLVGTDVSPTAFPAKRPPNTEFHVQSISDPWPTEWRDSFDLVHQKLVIACVPPDEGRQALYRLIDLAKPGTGWVQFTEGSLEHLTPEQRKQYPVLARFQSLVAEMLPHFRWNPRPGKLVRQWLEEYGLQEVQEKVMEIPIGAGNPDPKLGEMAKQNMLEVVSNFRTAATRLPDGTGIRAEDFDPILRDIKVEFETVGGILRFNTVWGRRP
Turning to B1, the binding entry with GliT:GFP (A. fumigatus) and with GtmA:GFP (A. fumigatus) was “binds” throughout.

B2: PtcB, type 2 C protein phosphatase (PP2C) involved in dephosphorylation of SakA MAP kinase (protein, UniProt Q4WTH5 1-429)
chain: MRTCGTSSEGQDECCLYGLSAMQGWRISMEDAHAAVLDLQAKSTGGSEKPTDPDKRLAFFGVYDGHGGDKVALFAGENVHKIVAKQEAFAKGDIEQALKDGFLATDRAILEDPKYEEEVSGCTAAVSVISKNKIWVANAGDSRSVLGVKGRAKPLSFDHKPQNEGEKARISAAGGFVDFGRVNGNLALSRAIGDFEFKKSPELSPEQQIVTAYPDVTVHEVTDDDEFLVIACDGIWDCQSSQSVVEFVRRGIAAKQELYRICENMMDNCLASNSETGGVGCDNMTMIIIGLLNGKTKEEWYNQISERVANGDGPCAPPEYGKSEFRGPGIRNQFEETPDNYDLENDRSRGFSVRSGRIILLGDGTELIPEQNDEELFDQREENRDVTNHLQHDKAEETSTAANLSESPSSANKNSSGSGTEATEKSASS
Consider B2, for which the binding result with GtmA:GFP (A. fumigatus) was “binds”.

B3: GliG, glutathione S-transferase encoded in the gliotoxin biosynthetic gene cluster (protein, UniProt A4GYZ0 1-240)
chain: MSERPSDLVVNRLVLFVVKGTATSTHNTVKPLILLEELGVPHDIYVVEKVSAPWFSEINPHKMVPAILDRSPDGRDTLRAWESTSTLMYIADAYDKDGTLGGRNVQERSEINNWLTLHTAALGPTAKYWLYFYKLHPEKLPKTIEKLRSNITVQYDILERRLNEPGQQYLALKDRPTIADIATLPFAMKSTAELFGLEFEKWPKLQEWSVRMGEREAVKRAWQRVAGFGHGEKEYGMLEA
B3: the binding result with GtmA:GFP (A. fumigatus) is listed as “binds”.
